Experimental data as given in publication doi:10.1101/2025.07.06.663376.
No constants are given. Whether binding was seen depends on the method and setting. Binding seen in cells or lysates may run through a third protein. Some results given as binding are weak or reduced against the parent protein; the word gives no strength.

Amino acid sequences for entries named in this document (tags omitted).
UniProt Q9NYG5: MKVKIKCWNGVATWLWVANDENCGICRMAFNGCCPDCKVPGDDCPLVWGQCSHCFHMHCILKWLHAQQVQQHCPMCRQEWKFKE
UniProt P07355: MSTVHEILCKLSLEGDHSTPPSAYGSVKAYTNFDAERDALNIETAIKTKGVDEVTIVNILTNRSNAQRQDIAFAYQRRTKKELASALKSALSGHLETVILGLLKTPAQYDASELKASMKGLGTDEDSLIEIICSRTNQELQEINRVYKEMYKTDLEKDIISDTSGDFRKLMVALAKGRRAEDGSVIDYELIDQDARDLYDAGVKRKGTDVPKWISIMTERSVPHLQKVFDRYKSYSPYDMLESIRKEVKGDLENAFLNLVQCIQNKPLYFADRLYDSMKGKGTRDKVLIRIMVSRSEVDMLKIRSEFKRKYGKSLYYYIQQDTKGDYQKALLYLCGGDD
UniProt O00762: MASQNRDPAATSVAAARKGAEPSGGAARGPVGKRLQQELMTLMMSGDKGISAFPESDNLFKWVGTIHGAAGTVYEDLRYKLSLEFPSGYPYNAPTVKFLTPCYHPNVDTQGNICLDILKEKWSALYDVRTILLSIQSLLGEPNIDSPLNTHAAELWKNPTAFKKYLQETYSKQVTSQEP

How the values were obtained:
Experiment in all cases: co-IP
APC11-HA = APC11-HA (UniProt Q9NYG5)
ANXA2-HA = ANXA2-HA (UniProt P07355)
[1] = target: FLAG-tagged UBE2C (UBE2C-FLAG) (UniProt O00762)

FLAG-tagged ANXA2 (ANXA2-FLAG) (from UniProt P07355 1-339)
binding (APC11-HA): binds

FLAG-tagged UBE2C (UBE2C-FLAG) (from UniProt O00762 1-179) (enzyme)
binding (ANXA2-HA): binds

ANXA2-HA (from UniProt P07355 1-339)
binding [1]: binds
